# Assay results from the supplement of paper PMC4256282, “Profound Activity of the Anti-cancer Drug Bortezomib against Echinococcus multilocularis Metacestodes Identifies the Proteasome as a Novel Drug Target for Cestodes” (PLoS Neglected Tropical Diseases, 2014).
# Where a name gives a salt, the structure may show the parent alone. The list shows a part of the results. Single values are uncertain, as repeats are few or missing.
# System: Echinococcus multilocularis metacestodes
# Assay: vesicle damage (PGI release) relative to positive control DB1127 at 20 µM, DMSO subtracted; higher = more parasite damage
# Details: treatment time 5 days
# Protocol: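 In vitro-cultured E. multilocularis metacestode vesicles (isolate H95, 2-4 mm) were treated in singlets with each drug of the Selleck FDA-approved library (426 drugs) at 20 µM for 5 days at 37°C. Damage was read as phosphoglucose isomerase (PGI) release into the medium, measured as the increase in absorbance at 340 nm. Activity was expressed as % of the positive control DB1127 (20 µM) after subtracting the DMSO control; a hit was defined as ≥50% of DB1127.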
row,Compound,vesicle damage [%]
1,NCC1(CC(=O)O)CCCCC1 [Gabapentin],1.72
2,CC[C@@]1(O)C(=O)OCc2c1cc1n(c2=O)Cc2cc3ccccc3nc2-1 [Camptothecin],2.66
3,O=c1[nH]c2ccccc2n1CCCN1CCC(n2c(=O)[nH]c3cc(Cl)ccc32)CC1 [Domperidone],11.1
4,NCC1(CC(=O)O)CCCCC1 [Gabapentin Hydrochloride],-1.2
5,C=C1C[C@@H]2[C@H](CC[C@]3(C)C(=O)CC[C@@H]23)[C@@]2(C)C=CC(=O)C=C12 [Exemestane],-2.81
6,CCC(=O)O[C@H]1CC[C@H]2[C@@H]3CCC4=CC(=O)CC[C@]4(C)[C@H]3CC[C@]12C [Testosterone propionate],-0.83
7,CC(=O)O[C@H]1C[C@@H]2CC[C@@H]3[C@H](CC[C@@]4(C)[C@H]3C[C@H]([N+]3(C)CCCCC3)[C@@H]4OC(C)=O)[C@@]2(C)C[C@@H]1[N+]1(C)CCCCC1 [Pancuronium bromide],3.42
8,CN(C)C(=O)Oc1ccc[n+](C)c1 [Pyridostigmine Bromide],-3.24
9,CCOC(=O)c1cncn1[C@H](C)c1ccccc1 [Etomidate],-2.29
10,C[C@]12CC[C@H]3[C@@H](CCC4=CC(=O)CC[C@@]43C)[C@@H]1CC[C@@H]2OC(=O)CCC1CCCC1 [Testosterone cypionate],-1.43
11,O=C(O[C@H]1C[C@H]2CC[C@@H](C1)[N+]21CCCC1)C(O)(c1ccccc1)c1ccccc1 [Trospium chloride],0.0302
12,CC(O)(CS(=O)(=O)c1ccc(F)cc1)C(=O)Nc1ccc(C#N)c(C(F)(F)F)c1 (centres undefined) [Bicalutamide],4.91
13,CN1[C@@H]2C[C@@H](OC(=O)[C@H](CO)c3ccccc3)C[C@H]1[C@@H]1O[C@@H]12 [Scopolamine hydrobromide],-0.226
14,N.N.[Cl][Pt][Cl] [Cisplatin],0.219
15,Cn1c(CCCC(=O)O)nc2cc(N(CCCl)CCCl)ccc21 [Bendamustine Hydrochloride],1.51
16,CN(C)C(=O)Oc1cccc([N+](C)(C)C)c1 [Neostigmine bromide],2.05
17,COc1ccc(C(CN(C)C)C2(O)CCCCC2)cc1 (centres undefined) [Venlafaxine hydrochloride],2.1
18,CC1C=CC=CCCC=CC=CC=CC=CC(OC2OC(C)C(O)C(N)C2O)CC2OC(O)(CC(O)C(O)CCC(O)CC(O)CC(O)CC(=O)OC(C)C(C)C1O)CC(O)C2C(=O)O (centres undefined) [Nystatin],-12.1
19,Cc1cccc(C)c1NC(=O)CN1CCCC1=O [Nefiracetam],-9.41
20,O=P1(NCCCl)OCCCN1CCCl (centres undefined) [Ifosfamide],3.08
21,CC(NC(C)(C)C)C(=O)c1cccc(Cl)c1 (centres undefined) [Amfebutamone hydrochloride],3.21
22,C#CCN(C)[C@H](C)Cc1ccccc1 [Selegiline hydrochloride],1.56
23,C[C@]12CC[C@H]3[C@@H](CC[C@@]45O[C@@H]4C(O)=C(C#N)C[C@]35C)[C@@H]1CC[C@@H]2O [Trilostane],-0.281
24,C#C[C@]1(O)C=C[C@H]2[C@@H]3CCC4=CC(=O)CC[C@@H]4[C@H]3CC[C@@]21CC [Gestodene],-4.12

# Nos. 15–16 from above:
row,Compound,vesicle damage [%]
15,Cn1c(CCCC(=O)O)nc2cc(N(CCCl)CCCl)ccc21 [Bendamustine Hydrochloride],1.51
16,CN(C)C(=O)Oc1cccc([N+](C)(C)C)c1 [Neostigmine bromide],2.05
